Measured values as given in patent EP0529395A2, “Benzamide multidrug resistance reversing agents” (Bristol-Myers Squibb Company, priority 1991, dated 1993).

Tested on: MCF-7
Assay: Cytotoxic assay, Adriamycin in sensitive breast carcinoma cells
Type: cell-based
Settings: Homo sapiens, MCF7; sensitive MCF-7 cells, no chemosensitizer; read-out: ADR IC50
Method: Cell Culture: HCT116/VM46 cells were selected from human colon carcinoma HCT116 cell line for resistance to VM26 and MCF-7/ADR cells were selected from human breast carcinoma MCF-7 cell line for resistance to Adriamycin. […] The cell lines were grown in tissue culture flasks containing McCoy's 5A medium and 10% fetal bovine serum. Cells were maintained at 37°C in a humidified atmosphere containing 5% C02 and subcultured every 5 days.
Cytotoxic Assay: The cells were seeded in 96 well microtiter plates at 5x10^3 cells per well and allowed to grow for 24 hours at 37 °C. Cells were then incubated with decreasing amounts of antitumor agents: Adriamycin (100 µM, maximal concentration) or actinomycin D (17.6 ng/ml), for MCF-7 and HCT-116 cells, respectively. Chemosensitizers were added at variable concentrations ranging from 0.08 µM to […]. In parallel, verapamil was used as positive control at the same concentrations. After 48 hours of incubation, the cells were washed, fixed and stained with crystal violet. Absorbance was read by Molecular Devices' microtiter plate reader at the wavelength of 595nm. The IC50 value (50% inhibition of cell growth) was determined from relative survival rates resulted from two to three independent experiments. […]

**Q.** With `COc1cccc2c1C(=O)c1c(O)c3c(c(O)c1C2=O)C[C@@](O)(C(=O)CO)C[C@@H]3O[C@H]1C[C@H](N)[C@H](O)[C@H](C)O1` [ADR, Adriamycin] as the molecule, how does the IC50 read?
**A.** 360 nM
